Results are given in words; binding and its absence hold for the method and conditions named. Some results given as binding are weak or reduced against the parent protein; the word gives no strength. Tags and fused reporters may be left off the sequences shown.
Target: T1, Spc97 (His-Spc97), C. albicans (C. albicans) (UniProt Q59PZ2)
T1 sequence: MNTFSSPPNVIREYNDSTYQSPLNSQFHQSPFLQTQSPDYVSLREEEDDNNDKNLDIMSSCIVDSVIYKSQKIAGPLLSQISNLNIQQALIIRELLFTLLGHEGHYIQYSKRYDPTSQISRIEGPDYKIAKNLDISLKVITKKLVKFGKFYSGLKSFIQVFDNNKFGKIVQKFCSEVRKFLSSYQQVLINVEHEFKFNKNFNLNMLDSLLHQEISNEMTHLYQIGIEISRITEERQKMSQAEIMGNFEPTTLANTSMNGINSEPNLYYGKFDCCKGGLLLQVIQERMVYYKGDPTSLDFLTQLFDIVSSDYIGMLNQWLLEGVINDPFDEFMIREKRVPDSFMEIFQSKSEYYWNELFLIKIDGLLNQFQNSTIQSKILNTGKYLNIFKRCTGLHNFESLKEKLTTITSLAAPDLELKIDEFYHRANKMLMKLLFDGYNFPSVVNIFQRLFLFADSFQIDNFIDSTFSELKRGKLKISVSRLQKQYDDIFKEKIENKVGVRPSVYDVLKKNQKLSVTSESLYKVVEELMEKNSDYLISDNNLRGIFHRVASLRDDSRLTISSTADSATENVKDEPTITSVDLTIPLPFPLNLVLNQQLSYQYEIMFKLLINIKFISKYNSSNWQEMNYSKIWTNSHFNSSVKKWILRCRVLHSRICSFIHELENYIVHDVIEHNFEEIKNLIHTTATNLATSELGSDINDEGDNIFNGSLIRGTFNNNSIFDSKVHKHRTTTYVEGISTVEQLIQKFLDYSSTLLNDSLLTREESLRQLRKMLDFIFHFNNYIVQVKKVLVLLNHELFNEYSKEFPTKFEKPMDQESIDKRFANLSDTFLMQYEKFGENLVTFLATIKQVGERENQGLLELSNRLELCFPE
Assay: cryo-EM structure; γ-TuSC/Spc72^1-599/FLAG-Stu2 complex purified via FLAG-Stu2; single particle analysis, γ-TuSC unit within oligomers at 3.6 Å, 14-spoked ring at 8.2 Å; both purified

B1: His-Spc72^1-599 (C. albicans), co-expressed in insect cells (domain or fragment, UniProt Q5AGV5 1-599, looked up)
chain: MSNLSINESNDNSNVSILSNKSGAQSSTNSSPNLIVFKQPEDLSIQLQQQQQGTQEDTPEEEEEEEEEMEQITQLEVQQENQPDTLSSSPFISRPNSPLDDIIRPQGTSSPSLTIRDSYSSQVDINISNLHKSLNEMRLSTDPVDNNNNNNKVNKNNPTNSDISNDDIITIDNLTPSRIQPKNISPWRQFRPTLRGSPESTPRSLFQNKPNLKFNNGLSPTNGSRDMVTNNIATTTKSREEELNKRIVNYKIQLKLMKNFLQELIDRNNLDPHEFHTLLRRNNNNIMNNENNPLSTSLSQTSTLEIQHQNLQIELDEALELNKQLYNKIETANKEISDKDLQISNYESRINLINYSVDELIYILINEYDKNNYSHGGSNTTSPGKETLQQSISAQLEVKLNVLKLELMTRLDQSHQYNNKPHDLFTPPYTSSEYGVSTNNVANKNDLEGYIHIIEDLIKTVDELELTCENYKANKNELQNQLVEQINESIRIKNNFQIMSNKFNQLRQSLSEKENDKNLDEFSKNNHQQQQQQQIQQLEQKLIEYEKCITILQDELDQYKQPSDTTNTTNNNNNNNNNNNRSSYSSYNNHRNSSLNELN
notes: Only the CM1 motif is resolved in the cryo-EM map, as a parallel dimeric coiled coil; source: Sf21 insect cells, MultiBac co-expression with γ-TuSC components and FLAG-Stu2 or His-GFP-Mzt1
binding: binds

— PMC11701102, “Structural insights into the interplay between microtubule polymerases, γ-tubulin complexes and their receptors” (Nature Communications, 2025)
